{"source": "PubChem BioAssay AID1671195 (Yale University, 2021)", "assay": "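Knockdowns that increase or decrease uptake of fluorescent LDL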 (primary screen)", "system": "human Huh7 hepatoma cells", "reagent": "siRNA pool against human genes, 18 nM", "duration": "about 2 to 2.5 days of knockdown, then 8 h LDL uptake", "conditions": "DiI-labelled LDL at 30 µg/ml for 8 h, in lipoprotein-deficient serum medium", "read-out": "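Per-cell DiI-LDL intensity by automated imaging; well means scaled to the plate median and given as a robust z-score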", "reading the numbers": "robust z-score: higher = more LDL uptake after knockdown", "active means": "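Active when two or more replicates show a robust z-score above 2 or below -2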", "note": "The deposit covers about 22,000 reagents; this is an unselected part. In the full data, about 1,510 (6.9%) are marked active. 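Active includes knockdowns raising or lowering LDL uptake; positive z-scores mean more uptake, negative mean less.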"}
{"Target gene": "LOC440483 (retired record) (GeneID 440483)", "robust z-score, replicate 1": 0.0488, "robust z-score, replicate 2": -0.684, "robust z-score, replicate 3": -0.158, "call": "inactive"}
{"Target gene": "OR4S2 (GeneID 219431)", "robust z-score, replicate 1": -0.44, "robust z-score, replicate 2": -0.00992, "robust z-score, replicate 3": 0.0977, "call": "inactive"}
{"Target gene": "HAPLN1 (GeneID 1404)", "robust z-score, replicate 1": 0.783, "robust z-score, replicate 2": 0.351, "robust z-score, replicate 3": 0.409, "call": "inactive"}
{"Target gene": "OR7C2 (GeneID 26658)", "robust z-score, replicate 1": 0.0172, "robust z-score, replicate 2": 0.895, "robust z-score, replicate 3": -0.229, "call": "inactive"}
{"Target gene": "ABCA16P (GeneID 342293)", "robust z-score, replicate 1": -0.711, "robust z-score, replicate 2": -0.615, "robust z-score, replicate 3": -0.555, "call": "inactive"}
{"Target gene": "GPR143 (GeneID 4935)", "robust z-score, replicate 1": 0.161, "robust z-score, replicate 2": -0.733, "robust z-score, replicate 3": 0.0838, "call": "inactive"}
{"Target gene": "FLJ42258 (retired record) (GeneID 440049)", "robust z-score, replicate 1": -0.247, "robust z-score, replicate 2": -0.0963, "robust z-score, replicate 3": -0.852, "call": "inactive"}
{"Target gene": "ELMO1 (GeneID 9844)", "robust z-score, replicate 1": -1.17, "robust z-score, replicate 2": 0.229, "robust z-score, replicate 3": -0.212, "call": "inactive"}
{"Target gene": "SNX24 (GeneID 28966)", "robust z-score, replicate 1": 0.262, "robust z-score, replicate 2": -1.06, "robust z-score, replicate 3": 0.336, "call": "inactive"}
{"Target gene": "VPS53 (GeneID 55275)", "robust z-score, replicate 1": 1.34, "robust z-score, replicate 2": 1.47, "robust z-score, replicate 3": 1.17, "call": "inactive"}
{"Target gene": "MTIF2 (GeneID 4528)", "robust z-score, replicate 1": 0.094, "robust z-score, replicate 2": -0.335, "robust z-score, replicate 3": 1.08, "call": "inactive"}
{"Target gene": "SLCO2B1 (GeneID 11309)", "robust z-score, replicate 1": -1.12, "robust z-score, replicate 2": -1.17, "robust z-score, replicate 3": -0.882, "call": "inactive"}
{"Target gene": "HK1 (GeneID 3098)", "robust z-score, replicate 1": -0.657, "robust z-score, replicate 2": -1.09, "robust z-score, replicate 3": -0.3, "call": "inactive"}
{"Target gene": "ZMIZ2 (GeneID 83637)", "robust z-score, replicate 1": 0.439, "robust z-score, replicate 2": 0.54, "robust z-score, replicate 3": 0.617, "call": "inactive"}
{"Target gene": "NR5A2 (GeneID 2494)", "robust z-score, replicate 1": -1.25, "robust z-score, replicate 2": -1.36, "robust z-score, replicate 3": -1.37, "call": "inactive"}
{"Target gene": "LOC402418 (retired record) (GeneID 402418)", "robust z-score, replicate 1": -0.372, "robust z-score, replicate 2": -0.267, "robust z-score, replicate 3": -0.326, "call": "inactive"}
{"Target gene": "ZFP82 (GeneID 284406)", "robust z-score, replicate 1": -0.327, "robust z-score, replicate 2": -0.719, "robust z-score, replicate 3": -0.544, "call": "inactive"}
{"Target gene": "DES (GeneID 1674)", "robust z-score, replicate 1": -0.807, "robust z-score, replicate 2": -0.629, "robust z-score, replicate 3": 0.168, "call": "inactive"}
{"Target gene": "GORASP2 (GeneID 26003)", "robust z-score, replicate 1": 0.122, "robust z-score, replicate 2": 0.624, "robust z-score, replicate 3": -1.05, "call": "inactive"}
{"Target gene": "PNPLA6 (GeneID 10908)", "robust z-score, replicate 1": -1.4, "robust z-score, replicate 2": -1.64, "robust z-score, replicate 3": -1.22, "call": "inactive"}
{"Target gene": "TRAPPC6A (GeneID 79090)", "robust z-score, replicate 1": -0.163, "robust z-score, replicate 2": 0.0788, "robust z-score, replicate 3": 0.332, "call": "inactive"}
{"Target gene": "SFXN1 (GeneID 94081)", "robust z-score, replicate 1": -0.908, "robust z-score, replicate 2": -0.866, "robust z-score, replicate 3": -0.688, "call": "inactive"}
{"Target gene": "NRP2 (GeneID 8828)", "robust z-score, replicate 1": 0.912, "robust z-score, replicate 2": 0.676, "robust z-score, replicate 3": 0.487, "call": "inactive"}
{"Target gene": "MINPP1 (GeneID 9562)", "robust z-score, replicate 1": 0.734, "robust z-score, replicate 2": 0.654, "robust z-score, replicate 3": 0.254, "call": "inactive"}

Single entries from the entries so far.
Value for FLJ42258 (retired record) (GeneID 440049) under “call”: inactive
Under “call”, PNPLA6 (GeneID 10908) shows inactive
